# From US20230116703A1, “NOVEL ERGOLINES AND METHODS OF TREATING MOOD DISORDERS” (priority 2021, published 2023)
# Some of these results come from one statement about several compounds together.
# Test system: C57BL/6 mice
# Test: Head twitch response (HTR) in mice
# Format: in vivo
# Conditions: mouse, SC
# Description: Agonists of the 5-HT2A receptor are well known to induce this effect in rodents and the potency of this HTR is correlated with hallucinogenic potency in humans.
# Animals. Adult male C57BL/6 mice, aged 6-8 weeks (body weight 20-25 g) were used in this experiment. Animals were housed under controlled temperatures and 12-hour light/dark cycles (lights on between 07:00-19:00 h), with ad libitum food and water. This study was carried out in strict accordance with the requirements of the Committee for the Purpose of Control and Supervision of Experiments on Animals (CPCSEA), India. All efforts were made to minimize suffering.
# Drugs and Drug Administration. Compound 1 was synthesized as described above. It was administered subcutaneously (SC) dissolved in saline vehicle at a volume of 10 mL/kg. Five doses were tested, with n=6 animals/group. Doses were calculated on the basis of the freebase.
# Procedure. Mice were administered one dose of the drug and immediately placed into a small open field for behavioral observation. Animals were observed continuously for 20 mins and the number of head twitches (HTs) were counted by an observer blind to the treatment condition.
# Statistical Analysis. The data points shown are the mean±standard error of the mean (SEM). Analysis was performed using GraphPad Prism 6. Curves were fit using a non-linear gaussian distribution to calculate ED50 and Emax values.
# Additional disclosed compounds were tested in the mouse head twitch response (HTR) assay according to the procedure described in Example 43. […] Lastly, compounds with much larger benzyl and phenethyl substituents on the amine nitrogen (e.g., 10 and 11) were low efficacy in this assay, consistent with their lower maximal efficacy in the arrestin functional assay (see Example 41).
row,Compound,HTR at most efficacious dose
1,"CCC[C@@H](C)NC(=O)[C@@H]1C=C2c3cccc4[nH]cc(c34)C[C@H]2N(C)C1 [Int17, (6aR,9R)-7-methyl-N—((R)-pentan-2-yl)-4,6,6a,7,8,9-hexahydroindolo[4,3-fg]quinoline-9-carboxamide]",< 15
2,"CCN(CC)C(=O)[C@@H]1C=C2c3cccc4[nH]cc(c34)C[C@H]2N(CCCF)C1 [Compound 2, (6aR,9R)—N,N-diethyl-7-(3-fluoropropyl)-4,6,6a,7,8,9-hexahydroindolo[4,3-fg]quinoline-9-carboxamide]",> 15
3,"CCC(CC)NC(=O)[C@@H]1C=C2c3cccc4[nH]cc(c34)C[C@H]2N(C)C1 [Int14, (6aR,9R)-7-methyl-N-(pentan-3-yl)-4,6,6a,7,8,9-hexahydroindolo[4,3-fg]quinoline-9-carboxamide]",< 15
4,"CCCN1C[C@H](C(=O)N(CC)CC)C=C2c3cccc4[nH]cc(c34)C[C@H]21 [Compound 1, (6aR,9R)—N,N-diethyl-7-propyl-4,6,6a,7,8,9-hexahydroindolo[4,3-fg]quinoline-9-carboxamide]",> 15
5,"CC[C@@H](C)NC(=O)[C@@H]1C=C2c3cccc4[nH]cc(c34)C[C@H]2N(CC)C1 [Compound 5, (6aR,9R)—N—((R)-sec-butyl)-7-ethyl-4,6,6a,7,8,9-hexahydroindolo[4,3-fg]quinoline-9-carboxamide]",> 15
6,"C=CCN1C[C@H](C(=O)N[C@H](C)CC)C=C2c3cccc4[nH]cc(c34)C[C@H]21 [Compound 8, (6aR,9R)-7-allyl-N—((R)-sec-butyl)-4,6,6a,7,8,9-hexahydroindolo[4,3-fg]quinoline-9-carboxamide]",> 15
7,"CCC[C@@H](C)NC(=O)[C@@H]1C=C2c3cccc4[nH]cc(c34)C[C@H]2N(CCC)C1 [Compound 7, (6aR,9R)—N—((R)-pentan-2-yl)-7-propyl-4,6,6a,7,8,9-hexahydroindolo[4,3-fg]quinoline-9-carboxamide]",> 15
8,"CCCN1C[C@H](C(=O)N[C@H](C)CC)C=C2c3cccc4[nH]cc(c34)C[C@H]21 [Compound 3, (6aR,9R)—N—((R)-sec-butyl)-7-propyl-4,6,6a,7,8,9-hexahydroindolo[4,3-fg]quinoline-9-carboxamide]",> 15
9,"CC[C@@H](C)NC(=O)[C@@H]1C=C2c3cccc4[nH]cc(c34)C[C@H]2N(C)C1 [Int8, (6aR,9R)—N—((R)-sec-butyl)-7-methyl-4,6,6a,7,8,9-hexahydroindolo[4,3-fg]quinoline-9-carboxamide]",< 15
10,"CCCN1C[C@H](C(=O)NC(CC)CC)C=C2c3cccc4[nH]cc(c34)C[C@H]21 [Compound 6, (6aR,9R)—N-(pentan-3-yl)-7-propyl-4,6,6a,7,8,9-hexahydroindolo[4,3-fg]quinoline-9-carboxamide]",> 15
